The supplement of paper PMC8326762, “A Small Molecule Inhibitor of Pex3–Pex19 Interaction Disrupts Glycosome Biogenesis and Causes Lethality in Trypanosoma brucei” (Frontiers in Cell and Developmental Biology, 2021)
Where a name gives a salt, the structure may show the parent alone. This is one part of the list. The data scatter; read single values as rough.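 Yeast growth was measured as optical density at 600 nm. Two-hybrid strains grew without histidine, so growth depended on Pex3–Pex19 binding. A compound was trypanosome-selective if it reduced growth of the trypanosome-pair strain by over 65% and of the human-pair strain by under 65%.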

System: T. brucei Pex3-Pex19 interaction (yeast two-hybrid)
Test: growth inhibition of yeast two-hybrid strain reporting TbPex3-TbPex19 interaction, relative to DMSO; higher = stronger inhibition of T. brucei Pex3-Pex19 interaction / growth
Conditions: 100 µM; 24 h

| Structure (SMILES) | growth inhibition |
| --- | --- |
| CCN(CC)CCNC(=O)c1cc(Cl)c(N)cc1OC [Metoclopramide hydrochloride] | 66.1% |
| C[C@](N)(Cc1ccc(O)c(O)c1)C(=O)O [L-alpha-Methyl DOPA] | 61% |
| CC(=O)CCCCn1c(=O)c2c(ncn2C)n(C)c1=O [Pentoxifylline] | 65.1% |
| NC(=O)CC[C@H](N)C(=O)O [L-Glutamine] | 58.3% |
| NCC=CC(=O)O (stereo in doubt) [cis-4-Aminocrotonic acid] | 60.9% |
| CCCN(CC1CC1)c1nc(C)nc(Nc2c(Cl)cc(Cl)cc2Cl)c1Cl | 29.4% |
| COc1ccc(-c2ccc(=N)n(CCCC(=O)O)n2)cc1 | 62.1% |
| OCCN1CCN(CC/C=C2/c3ccccc3Sc3ccc(C(F)(F)F)cc32)CC1 [cis-(Z)-Flupenthixol dihydrochloride] | 46.2% |
| CN(C)CCCN1c2ccccc2Sc2ccccc21 [Promazine hydrochloride] | 37.6% |
| CO/N=C(\C(=O)N[C@@H]1C(=O)N2C(C(=O)O)=C(CSc3nc(=O)c(O)nn3C)CS[C@H]12)c1csc(N)n1 [Ceftriaxone sodium] | 62.8% |
| Nc1ncn([C@@H]2O[C@H](CO)[C@@H](O)[C@H]2O)c(=O)n1 [5-azacytidine] | 56.9% |
| O=Nc1c(-c2c(O)[nH]c3ccccc23)[nH]c2ccccc12 [Indirubin-3'-oxime] | 29.3% |
| Cc1[nH]c(=O)c(C#N)cc1-c1ccncc1 [Milrinone] | 59.6% |
| Nc1ccc(-c2ccc3ccccc3n2)cc1 [BF-170 hydrochloride] | 55.1% |
| NC(=O)c1ccccc1 [Benzamide] | 53.9% |
| C[C@H]1O[C@@H](n2cc(F)c(=O)[nH]c2=O)[C@H](O)[C@@H]1O [5-fluoro-5'-deoxyuridine] | 57.4% |
| CCOC(=O)C(C)(C)Oc1ccc(Cl)cc1 [Clofibrate] | 46.8% |
| CCN1C(=O)C=CC1=O [N-Ethylmaleimide] | 62.6% |
| NS(=O)(=O)c1ccc(-n2nc(C(F)(F)F)cc2-c2ccc(Cl)cc2)cc1 | 52.5% |
| CC[N+](CC)(CC)CC(=O)Nc1c(C)cccc1C [Lidocaine N-ethyl bromide quaternary salt] | 76.1% |

No new results follow: an excerpt of the list.

| Structure (SMILES) | growth inhibition |
| --- | --- |
| CCOC(=O)C(C)(C)Oc1ccc(Cl)cc1 [Clofibrate] | 46.8% |
| CCN1C(=O)C=CC1=O [N-Ethylmaleimide] | 62.6% |
| NS(=O)(=O)c1ccc(-n2nc(C(F)(F)F)cc2-c2ccc(Cl)cc2)cc1 | 52.5% |

More compounds.

| Structure (SMILES) | growth inhibition |
| --- | --- |
| CC[C@H]1OC(=O)[C@H](C)[C@@H](O[C@H]2C[C@@](C)(OC)[C@@H](O)[C@H](C)O2)[C@H](C)[C@@H](O[C@@H]2O[C@H](C)C[C@H](N(C)C)[C@H]2O)[C@](C)(O)C[C@@H](C)CN(C)[C@H](C)[C@@H](O)[C@]1(C)O [Azithromycin dihydrate] | 26.6% |
| Oc1cc2c(cc1O)C(c1ccccc1)CNCC2 (racemic) | 59% |
| Nc1ncnc2c1ncn2C1CCCO1 (centres undefined) | 34.9% |
| COC(=O)C(N)Cc1ccc(Cl)cc1 (racemic) [DL-p-Chlorophenylalanine methyl ester hydrochloride] | 34.8% |
| O=[N+]([O-])c1cc2nc(O)c(O)nc2cc1[N+](=O)[O-] | 64.7% |
| N[C@@H](Cc1c[nH]cn1)C(=O)O [L-Histidine hydrochloride] | 39.5% |
| CC(=O)N[C@@H](CS)C(=O)O [N-Acetyl-L-Cysteine] | 35.2% |
| CCOC(=O)c1ncn2c1CN(C)C(=O)c1cc(F)ccc1-2 [Flumazenil] | 60.8% |
| CCN(CC)CCOc1ccc(Nc2ncc3cc(-c4c(Cl)cccc4Cl)c(=O)n(C)c3n2)cc1 | 54.3% |
| COc1ccc2cccc(CCNC(C)=O)c2c1 [Agomelatine] | 36.4% |
| COc1cccc(-c2cc(=O)c3ccccc3o2)c1N | 45.5% |
| N[C@@H](Cc1ccc(O)c(I)c1)C(=O)O [3-Iodo-L-tyrosine] | 71.6% |
| NC(CCCP(=O)(O)O)C(=O)O (stereo not drawn) [D(-)-2-Amino-5-phosphonopentanoic acid] | 60.5% |
| O=C1/C(=C/c2cccs2)CC/C1=C\c1cccs1 | 41.7% |
| Fc1ccc([C@@H]2CCNC[C@H]2COc2ccc3c(c2)OCO3)cc1 [Paroxetine hydrochloride hemihydrate (MW = 374.83)] | 61.9% |
| C[N+](C)(C)CCOP(=O)(O)OP(=O)([O-])OC[C@H]1O[C@@H](n2ccc(N)nc2=O)[C@H](O)[C@@H]1O [Cytidine 5'-diphosphocholine sodium salt hydrate] | 58.3% |
| NO [Hydroxylamine hydrochloride] | 34.9% |
| CN1[C@@H]2CC[C@H]1CC(OC(=O)c1c[nH]c3ccccc13)C2 (some centres undefined) [3-Tropanyl-indole-3-carboxylate hydrochloride] | 59.5% |
| NS(=O)(=O)c1nn2cc(-c3ccccc3)nc2s1 | 42.4% |
